Assay [1] concerns the target human TRBC1 (hTRBC1), construct BIM0444 (human) (UniProt P01850). Put plainly: ELISA, antibody coated at 1 ug/mL, hTRBC1 BIM0444 titrated 100 nM to 6.4 pM. For orientation: ELISA stands for enzyme-linked immunosorbent assay.
For assay [2] the target is unchanged. Put plainly: ELISA (FIG. 7).
For assay [3], the target named is human TRBC1 (hTRBC1), construct BIM0443 (human) (UniProt P01850). The assay is described as follows: SPR (BIAcore T200).
The target of assay [4] is human TRBC1 (hTRBC1), construct BIM0444 (human) (UniProt P01850). Put plainly: Octet (FIG. 8).
Assay [5] has the same target. Put plainly: Octet (BLI), hTRBC1 BIM0444 on Protein A biosensors, Fab 50 nM to 0.78 nM. (In general: Biolayer interferometry detects binding as a change in optical thickness at a sensor tip.)

The chains behind the UniProt entries cited, without tags or fusion partners. Residues count along the entry.
UniProt P01850, residues 1-129: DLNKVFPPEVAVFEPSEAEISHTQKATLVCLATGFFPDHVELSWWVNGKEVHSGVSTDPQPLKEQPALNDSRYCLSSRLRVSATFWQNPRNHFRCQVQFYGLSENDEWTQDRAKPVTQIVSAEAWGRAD

These are yes or no findings as the source states them, for the method shown. Some entries that bind do so weakly or less than the wild type.

B1: JOVI.1 anti-TRBC1 mAb (bivalent) (antibody, V domains shown)
VH: EVRLQQSGPDLIKPGASVKMSCKASGYTFTGYVMHWVKQRPGQGLEWIGFINPYNDDIQSNERFRGKATLTSDKSSTTAYMELSSLTSEDSAVYYCARGAGYNFDGAYRFFDFWGQGTTLTVSS
VL: DVVMTQSPLSLPVSLGDQASISCRSSQRLVHSNGNTYLHWYLQKPGQSPKLLIYRVSNRFPGVPDRFSGSGSGTDFTLKISRVEAEDLGIYFCSQSTHVPYTFGGGTKLEIK
For B1, the binding entry in assay [1] and in assay [2] was “binds” in each case.

B2: BKM0194 (single arm) (antibody, V domains shown)
VH: QVQLVQSGAEVKKPGSSVKVSCKASGYTFTGYVMHWVRQAPGQGLEWMGFIIPIFGTANYAQKFQGRVTITSDKSTTTAYMELSSLRSEDTAVYYCARGAGYNFDGAYRFFDFWGQGTLVTVSS
VL: DVVMTQSPLSLPVTLGQPASISCRSSQRLVHSGGNTYLHWYQQRPGQSPRLLIYRVSNRFPGVPDRFSGSGSGTDFTLKISRVEAEDVGVYFCSQSTHVPYTFGGGTKVEIK
Take B2: the binding result in assay [3] was “binds”.

B3: JOVI.1 Fab BIM0446 (Fab, V domains shown)
VH: EVRLQQSGPDLIKPGASVKMSCKASGYTFTGYVMHWVKQRPGQGLEWIGFINPYNDDIQSNERFRGKATLTSDKSSTTAYMELSSLTSEDSAVYYCARGAGYNFDGAYRFFDFWGQGTTLTVSS
VL: DVVMTQSPLSLPVSLGDQASISCRSSQRLVHSNGNTYLHWYLQKPGQSPKLLIYRVSNRFPGVPDRFSGSGSGTDFTLKISRVEAEDLGIYFCSQSTHVPYTFGGGTKLEIK
Regarding B3, the binding entry in assay [4] and in assay [5] was “binds” each time.

B4: BKM0191 (single arm) (antibody, V domains shown)
VH: QVQLVQSGAEVKKPGSSVKVSCKASGYTFTGYVMHWVRQAPGQGLEWMGFIIPIFGTANYAQKFQGRVTITSDKSTTTAYMELSSLRSEDTAVYYCARGAGYNFDGAYRFFDFWGQGTLVTVSS
VL: DVVMTQSPLSLPVTLGQPASISCRSSQRLVHSNANTYLHWYQQRPGQSPRLLIYRVSNRFPGVPDRFSGSGSGTDFTLKISRVEAEDVGVYFCSQSTHVPYTFGGGTKVEIK
Consider B4, for which the binding result in assay [3] is “binds”.

B5: BKM0192 (single arm) (antibody, V domains shown)
VH: QVQLVQSGAEVKKPGSSVKVSCKASGYTFTGYVMHWVRQAPGQGLEWMGFIIPIFGTANYAQKFQGRVTITSDKSTTTAYMELSSLRSEDTAVYYCARGAGYNFDGAYRFFDFWGQGTLVTVSS
VL: DVVMTQSPLSLPVTLGQPASISCRSSQRLVHSNGNAYLHWYQQRPGQSPRLLIYRVSNRFPGVPDRFSGSGSGTDFTLKISRVEAEDVGVYFCSQSTHVPYTFGGGTKVEIK
As for B5, the binding entry in assay [3] was “binds”.

B6: BKM0195 (single arm) (antibody, V domains shown)
VH: QVQLVQSGAEVKKPGSSVKVSCKASGYTFTGYVMHWVRQAPGQGLEWMGFIIPIFGTANYAQKFQGRVTITSDKSTTTAYMELSSLRSEDTAVYYCARGAGYNFDGAYRFFDFWGQGTLVTVSS
VL: DVVMTQSPLSLPVTLGQPASISCRSSQRLVHSNGSTYLHWYQQRPGQSPRLLIYRVSNRFPGVPDRFSGSGSGTDFTLKISRVEAEDVGVYFCSQSTHVPYTFGGGTKVEIK
Consider B6, for which, in assay [3], the binding result was “binds”.

B7: humanized JOVI.1 Fab BIM0460 (Fab, V domains shown)
VH: QVQLVQSGAEVKKPGSSVKVSCKASGYTFTGYVMHWVRQAPGQGLEWMGFINPYNDDIQSNERFRGRVTITSDKSTTTAYMELSSLRSEDTAVYYCARGAGYNFDGAYRFFDFWGQGTLVTVSS
VL: DVVMTQSPLSLPVTLGQPASISCRSSQRLVHSNGNTYLHWYQQRPGQSPRLLIYRVSNRFPGVPDRFSGSGSGTDFTLKISRVEAEDVGVYFCSQSTHVPYTFGGGTKVEIK
Take B7: the binding entry in assay [4] and in assay [5] was “binds” in each case.

B8: BKM0193 (single arm) (antibody, V domains shown)
VH: QVQLVQSGAEVKKPGSSVKVSCKASGYTFTGYVMHWVRQAPGQGLEWMGFIIPIFGTANYAQKFQGRVTITSDKSTTTAYMELSSLRSEDTAVYYCARGAGYNFDGAYRFFDFWGQGTLVTVSS
VL: DVVMTQSPLSLPVTLGQPASISCRSSQRLVHSNANAYLHWYQQRPGQSPRLLIYRVSNRFPGVPDRFSGSGSGTDFTLKISRVEAEDVGVYFCSQSTHVPYTFGGGTKVEIK
With B8, in assay [3], the binding entry is “binds”.

B9: BKM0196 (single arm) (antibody, V domains shown)
VH: QVQLVQSGAEVKKPGSSVKVSCKASGYTFTGYVMHWVRQAPGQGLEWMGFIIPIFGTANYAQKFQGRVTITSDKSTTTAYMELSSLRSEDTAVYYCARGAGYNFDGAYRFFDFWGQGTLVTVSS
VL: DVVMTQSPLSLPVTLGQPASISCRSSQRLVHSGGSTYLHWYQQRPGQSPRLLIYRVSNRFPGVPDRFSGSGSGTDFTLKISRVEAEDVGVYFCSQSTHVPYTFGGGTKVEIK
Regarding B9, the binding result in assay [3] is “binds”.

The values above are taken from patent US20230357395A1.
